# Measurements taken from PubChem BioAssay AID445 (National Center for Advancing Translational Sciences (NCATS), 2006).
# The other results are listed elsewhere or left out. Further columns of the screen follow, without active or inactive calls. The list favours compounds with an active or inconclusive main result. The note in brackets gives the kind of curve behind each potency; many fits are weak.
# Experiment: IkB Signaling
# Settings: ABC-DLBCL IkBa-CBG/CBR dual luciferase ratio (green luciferase fused to IkBa over red control in OCI-Ly3 lymphoma cells), 4 h
# In short: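 Curves were fitted separately to fusion (green), unfused (red) and ratio luminescence, then classed by r2, magnitude and activity. Cells: OCI-Ly3, 4 h compound plus doxycycline at 37C; 10 uM MG-132 defined full response.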
# [1] = measured here: control luc red channel unless noted
smiles,measurement,setting,value
CCCCCc1nn2cc(-c3ccccc3)nc2s1,AC50,[1],"15.8 µM [falling, partial curve]"
Cc1cccc(N2CCN(S(=O)(=O)c3c(C(=O)N4CCC(C)CC4)c(C)n(C)c3C)CC2)c1C,AC50,[1],"39.8 µM [falling, single point]"
COC(=O)c1ccc(NC(=O)CC2C(=O)N(c3ccccc3)C(=O)N2Cc2ccco2)cc1 (stereo unspecified),AC50,[1],"25.1 µM [falling, single point]"
Cn1c(CN2CCCCC2)nc2cc(NC(=O)c3ccccc3)ccc21,AC50,[1],"12.6 µM [falling, partial curve]"
Cc1ccc(C)c(N2CCN(S(=O)(=O)c3ccc4c(c3)OCCO4)CC2)c1,AC50,[1],"20 µM [falling, partial curve]"
CCOC(=O)CS(=O)(=O)c1nc(-c2ccc(F)cc2)cc(C(F)(F)F)n1,AC50,[1],"2.51 µM [falling, full curve]"
O=C(Nc1ccc(F)cc1F)N1CCN(c2ccc(Cl)c(Cl)c2)CC1,AC50,[1],"7.94 µM [falling, full curve]"
Cc1ccc(Cl)cc1NC(=O)Cn1ncc2c(C)n(Cc3ccccc3F)c(C)c2c1=O,AC50,measured here: IkB-luc green channel,"39.8 µM [rising, single point]"
same,AC50,measured here: control luc red channel,"31.6 µM [rising, single point]"
COc1ccc(-c2nc(-c3ccccc3)c(-c3ccc(F)cc3)[nH]2)c(OC)c1C,AC50,[1],"15.8 µM [falling, partial curve]"
CCOC(=O)c1ccc(Oc2nc(SC)nc(N(C)C)n2)cc1,AC50,[1],"12.6 µM [falling, partial curve]"
Cc1ccc(C(C(=O)NC2CCCCC2)N(Cc2cccnc2)C(=O)C2COc3ccccc3O2)o1 (stereo unspecified),AC50,[1],"316 nM [rising, partial curve, poor fit] [measured here: IkB-luc green channel]"
CCOc1ccc(CCNC(=O)c2ccc3c(c2)sc2nc(-c4ccc(F)cc4)cn23)cc1OCC,AC50,[1],"12.6 µM [falling, partial curve]"
O=S(=O)(NCCc1csc2nc(-c3ccc(F)cc3)nn12)c1ccc(Oc2ccccc2)cc1,AC50,[1],"3.16 µM [rising, single point]"
COc1ccc(C2=NOC(CN3C(=O)c4ccccc4S3(=O)=O)C2)cc1 (stereo unspecified),AC50,[1],"12.6 µM [falling, partial curve]"
Cc1ccc(C(CC(=O)Nc2ccc(F)c(Cl)c2)N2Cc3ccccc3C2=O)cc1 (stereo unspecified),AC50,[1],"20 µM [falling, single point]"
CC(C)c1ccc(NC(=O)CCn2c(=O)c3cccn3c3ccccc32)cc1,AC50,[1],"25.1 µM [falling, partial curve]"
COc1cc(C(=O)Nc2nonc2-c2ccc(Cl)cc2)cc(OC)c1OC,AC50,[1],"2.51 µM [falling, partial curve]"
CCOC(=O)c1ccn(-c2nc(-c3cccc(OC)c3)cc(C(F)(F)F)n2)n1,AC50,[1],"7.94 µM [falling, partial curve]"
C=CCc1ccc(OCC(O)COCC)c(OC)c1 (stereo unspecified),AC50,[1],"20 µM [rising, partial curve]"
CCOC(=O)c1[nH]c(C)c(CCC(=O)Nc2ccc(Br)c(C)c2)c1C,AC50,[1],"31.6 µM [falling, partial curve]"
COc1ccc(C(=O)N(Cc2ccco2)Cc2ccccc2F)cc1Cl,AC50,[1],"31.6 µM [falling, single point]"
O=C(NCC(c1ccco1)S(=O)(=O)c1ccc(Cl)cc1)c1ccc(C(F)(F)F)cc1 (stereo unspecified),AC50,[1],"20 µM [falling, partial curve]"
Cc1ccc(Cn2c(SCc3ccc(C(=O)O)cc3)nc3cccnc32)cc1,AC50,[1],"15.8 µM [falling, partial curve]"
CCOc1ccc(CCNC(=O)c2ccc3nc(N4CCC(C)CC4)sc3c2)cc1OCC,AC50,[1],"12.6 µM [falling, partial curve]"
CCN(CCCNC(=O)CN1N=C(c2ccccc2)CCC1=O)c1cccc(C)c1,AC50,[1],"20 µM [falling, partial curve]"
COc1ccc(OC)c(Nc2nc(-c3ccc(O)c(O)c3)cs2)c1,AC50,[1],"39.8 µM [falling, single point]"
CCOC(=O)c1ccc(NC(=O)c2noc3c2CCCC3)cc1,AC50,[1],"0.631 µM [falling, full curve]"
COc1cccc(NC(=O)CSc2nnc(Cc3cccn3C)n2-c2ccc(F)cc2)c1,AC50,[1],"12.6 µM [falling, partial curve]"
O=C(CCC(=O)N1CCOc2ccccc21)NCc1cccs1,AC50,[1],"20 µM [rising, partial curve]"
O=S(=O)(NCCc1nnc2ccc(SCc3cccc(Cl)c3)nn12)c1ccccc1,AC50,[1],"25.1 µM [falling, partial curve]"
Cc1cc(N2CCN(C)CC2)nc2ccc(NC(=O)Nc3ccc(F)cc3)cc12,AC50,[1],"12.6 µM [falling, single point]"
CC(=O)N1CCCc2cc(S(=O)(=O)N3CCCC(C(=O)Nc4ccc(F)cc4F)C3)ccc21 (stereo unspecified),AC50,[1],"0.158 µM [falling, full curve, poor fit]"
COc1ccc(Cn2c(CNC(=O)Cc3ccc(OC)c(OC)c3)nc3cccnc32)cc1,AC50,[1],"20 µM [rising, single point]"
COc1ccc(CCNC(=O)c2ccc3nc(-c4ccco4)c(-c4ccco4)nc3c2)cc1OC,AC50,[1],"7.94 µM [falling, partial curve]"
Cc1ccc(NC(=O)CSc2nc(=O)n(Cc3ccncc3)c3c2CCC3)cc1Cl,AC50,[1],"15.8 µM [falling, partial curve]"
COc1ccc(Nc2ncc(C(=O)Nc3cccc(OC)c3)c3ccccc23)cc1,AC50,[1],"5.01 µM [falling, partial curve]"
Cc1cccc(OCCCC(=O)Nc2ccc(S(=O)(=O)Nc3onc(C)c3C)cc2)c1,AC50,[1],"12.6 µM [falling, partial curve]"
O=C(c1cccs1)c1ccc(-c2cccs2)s1,AC50,[1],"10 µM [falling, partial curve]"
Cc1ccc(NC(=O)NC(C)c2c(-n3cccc3)sc(C)c2C)c(C)c1 (stereo unspecified),AC50,[1],"0.0398 µM [falling, full curve, poor fit]"
COc1ccc(NC(=O)c2ccco2)cc1NC(=O)c1cccc(C)c1OC,AC50,[1],"0.501 µM [rising, full curve, poor fit]"

# Shown with tabs: entries from further up
smiles	measurement	setting	value
CCOC(=O)c1ccn(-c2nc(-c3cccc(OC)c3)cc(C(F)(F)F)n2)n1	AC50	[1]	7.94 µM [falling, partial curve]
C=CCc1ccc(OCC(O)COCC)c(OC)c1 (stereo unspecified)	AC50	[1]	20 µM [rising, partial curve]
CCOC(=O)c1[nH]c(C)c(CCC(=O)Nc2ccc(Br)c(C)c2)c1C	AC50	[1]	31.6 µM [falling, partial curve]
